Binding data for one molecule are collected here from publication doi:10.1101/2022.10.03.510455.

By UniProt entry, the sequences of proteins in these tests, tags left out.
UniProt P49815: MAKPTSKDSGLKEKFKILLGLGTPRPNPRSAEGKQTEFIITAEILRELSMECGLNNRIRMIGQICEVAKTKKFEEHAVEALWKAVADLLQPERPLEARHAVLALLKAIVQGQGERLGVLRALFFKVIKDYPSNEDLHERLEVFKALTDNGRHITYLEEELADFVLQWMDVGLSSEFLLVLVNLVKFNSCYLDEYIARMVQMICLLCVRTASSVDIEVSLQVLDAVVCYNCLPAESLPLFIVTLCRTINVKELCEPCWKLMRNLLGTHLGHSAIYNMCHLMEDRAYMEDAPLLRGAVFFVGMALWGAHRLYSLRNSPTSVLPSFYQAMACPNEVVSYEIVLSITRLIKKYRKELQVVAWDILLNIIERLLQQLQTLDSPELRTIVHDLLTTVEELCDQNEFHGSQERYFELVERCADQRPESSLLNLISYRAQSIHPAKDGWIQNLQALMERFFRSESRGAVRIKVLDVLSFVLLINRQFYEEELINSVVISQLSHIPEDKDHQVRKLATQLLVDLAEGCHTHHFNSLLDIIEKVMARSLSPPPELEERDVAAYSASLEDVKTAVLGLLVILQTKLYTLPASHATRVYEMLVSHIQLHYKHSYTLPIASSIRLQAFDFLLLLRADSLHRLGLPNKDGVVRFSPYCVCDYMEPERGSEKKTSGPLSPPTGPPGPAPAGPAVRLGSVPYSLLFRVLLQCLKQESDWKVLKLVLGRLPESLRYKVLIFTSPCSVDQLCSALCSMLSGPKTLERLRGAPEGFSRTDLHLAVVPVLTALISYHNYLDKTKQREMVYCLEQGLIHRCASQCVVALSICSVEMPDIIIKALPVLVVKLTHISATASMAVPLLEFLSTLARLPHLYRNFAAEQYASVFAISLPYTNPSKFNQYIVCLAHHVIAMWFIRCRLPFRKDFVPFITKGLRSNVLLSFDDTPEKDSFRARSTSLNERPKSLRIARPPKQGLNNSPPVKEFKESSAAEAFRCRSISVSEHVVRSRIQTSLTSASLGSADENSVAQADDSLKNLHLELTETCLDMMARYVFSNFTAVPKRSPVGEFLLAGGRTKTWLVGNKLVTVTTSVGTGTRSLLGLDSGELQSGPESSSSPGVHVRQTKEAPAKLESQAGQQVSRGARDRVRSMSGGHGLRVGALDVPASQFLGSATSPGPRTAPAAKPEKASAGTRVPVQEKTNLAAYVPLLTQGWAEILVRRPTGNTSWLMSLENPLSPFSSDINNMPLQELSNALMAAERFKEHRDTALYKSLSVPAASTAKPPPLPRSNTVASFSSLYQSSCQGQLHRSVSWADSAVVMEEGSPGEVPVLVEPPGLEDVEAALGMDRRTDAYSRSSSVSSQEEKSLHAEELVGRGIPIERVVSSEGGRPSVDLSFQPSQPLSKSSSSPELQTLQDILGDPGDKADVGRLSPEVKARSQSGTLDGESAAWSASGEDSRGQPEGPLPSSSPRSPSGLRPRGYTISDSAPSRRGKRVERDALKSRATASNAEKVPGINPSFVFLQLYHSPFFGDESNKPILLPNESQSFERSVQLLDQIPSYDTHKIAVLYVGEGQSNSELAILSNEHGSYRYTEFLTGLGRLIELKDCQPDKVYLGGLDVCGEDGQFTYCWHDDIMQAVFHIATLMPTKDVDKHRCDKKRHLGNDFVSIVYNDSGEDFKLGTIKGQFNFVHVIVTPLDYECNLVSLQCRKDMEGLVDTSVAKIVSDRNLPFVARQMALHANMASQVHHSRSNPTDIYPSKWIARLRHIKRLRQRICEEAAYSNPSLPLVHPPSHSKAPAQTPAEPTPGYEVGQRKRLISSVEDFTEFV

No constants are given. Whether binding was seen depends on the method and setting. Some results given as binding are weak or reduced against the parent protein; the word gives no strength. Where a sequence is shown, tags or fusion partners need not be part of it.

The assay addresses FLAG tagged TSC2 (UniProt P49815). Kind of assay: single molecule pulldown.

B1: Myc tagged TSC1 (protein, UniProt Q92574 1-1164)
chain: MAQQANVGELLAMLDSPMLGVRDDVTAVFKENLNSDRGPMLVNTLVDYYLETSSQPALHILTTLQEPHDKHLLDRINEYVGKAATRLSILSLLGHVIRLQPSWKHKLSQAPLLPSLLKCLKMDTDVVVLTTGVLVLITMLPMIPQSGKQHLLDFFDIFGRLSSWCLKKPGHVAEVYLVHLHASVYALFHRLYGMYPCNFVSFLRSHYSMKENLETFEEVVKPMMEHVRIHPELVTGSKDHELDPRRWKRLETHDVVIECAKISLDPTEASYEDGYSVSHQISARFPHRSADVTTSPYADTQNSYGCATSTPYSTSRLMLLNMPGQLPQTLSSPSTRLITEPPQATLWSPSMVCGMTTPPTSPGNVPPDLSHPYSKVFGTTAGGKGTPLGTPATSPPPAPLCHSDDYVHISLPQATVTPPRKEERMDSARPCLHRQHHLLNDRGSEEPPGSKGSVTLSDLPGFLGDLASEEDSIEKDKEEAAISRELSEITTAEAEPVVPRGGFDSPFYRDSLPGSQRKTHSAASSSQGASVNPEPLHSSLDKLGPDTPKQAFTPIDLPCGSADESPAGDRECQTSLETSIFTPSPCKIPPPTRVGFGSGQPPPYDHLFEVALPKTAHHFVIRKTEELLKKAKGNTEEDGVPSTSPMEVLDRLIQQGADAHSKELNKLPLPSKSVDWTHFGGSPPSDEIRTLRDQLLLLHNQLLYERFKRQQHALRNRRLLRKVIKAAALEEHNAAMKDQLKLQEKDIQMWKVSLQKEQARYNQLQEQRDTMVTKLHSQIRQLQHDREEFYNQSQELQTKLEDCRNMIAELRIELKKANNKVCHTELLLSQVSQKLSNSESVQQQMEFLNRQLLVLGEVNELYLEQLQNKHSDTTKEVEMMKAAYRKELEKNRSHVLQQTQRLDTSQKRILELESHLAKKDHLLLEQKKYLEDVKLQARGQLQAAESRYEAQKRITQVFELEILDLYGRLEKDGLLKKLEEEKAEAAEAAEERLDCCNDGCSDSMVGHNEEASGHNGETKTPRPSSARGSSGSRGGGGSSSSSSELSTPEKPPHQRAGPFSSRWETTMGEASASIPTTVGSLPSSKSFLGMKARELFRNKSESQCDEDGMTSSLSESLKTELGKDLGVEAKIPLNLDGPHPSPPTPDSVGQLHIMDYNETHHEHS
Take B1: the binding entry is reported as “binds”.
